These are yes or no findings as the source states them, for the method shown. Binding seen in cells or lysates may run through a third protein. A result given as binding can be weak or reduced; the word gives no strength. Tags and fused reporters may be left off the sequences shown.

This test addresses T1, IFT20-GST (UniProt Q8LLV9).
T1 sequence: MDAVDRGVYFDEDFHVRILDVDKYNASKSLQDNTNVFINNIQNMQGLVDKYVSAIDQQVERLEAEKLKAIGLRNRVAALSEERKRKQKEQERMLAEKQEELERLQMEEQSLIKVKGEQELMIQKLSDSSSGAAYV
The test can be described thus: pull-down; IFT20-GST or recombinant GST incubated with 1 ml pre-cleared C. reinhardtii total cell lysate in PBS at 4 °C for 3 h, then GST beads for 1 h; washed three times with cold PBS; immunoblot with anti-ChR1 peptide and anti-GST; only the target purified.

In the case of Channelrhodopsin 1, the binding result is given as “binds”.

The values above are taken from publication PMC5046144.
